Some of the results follow.
What was measured:
Experiment in all cases: log2 fold change, soluble protein after heating vs DMSO (PISA); higher = thermal stabilisation; K562 cells, 10 uM, 30 min; active = over 0.2 and 3.5 SD of the protein, either way, in both replicates (recomputed)
[1] = compound: CC[C@@H]1C(=O)N(C)c2cnc(Nc3ccc(C(=O)NC4CCN(C)CC4)cc3OC)nc2N1C1CCCC1
In short: (§1)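 For each measurement, 10 μM compound was applied for 30 min to K562 cells at 2×10^6 cells/mL. Aliquots were heated for 3 min across 48°C-58°C, pooled, and extracted in PBS with 0.5% NP-40 at 4°C; the supernatant after 21,000xg for 90 min was soluble protein. This was quantified by TMTpro 16plex LC-MS/MS with channel sums equalised, and thermal stability was reported relative to control samples from duplicates, on a log2 fold-change scale.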

Amino acid sequences for entries named in this document (tags omitted). A change or cut given only in a name is not applied to a line headed by its entry.
UniProt Q8NHP6: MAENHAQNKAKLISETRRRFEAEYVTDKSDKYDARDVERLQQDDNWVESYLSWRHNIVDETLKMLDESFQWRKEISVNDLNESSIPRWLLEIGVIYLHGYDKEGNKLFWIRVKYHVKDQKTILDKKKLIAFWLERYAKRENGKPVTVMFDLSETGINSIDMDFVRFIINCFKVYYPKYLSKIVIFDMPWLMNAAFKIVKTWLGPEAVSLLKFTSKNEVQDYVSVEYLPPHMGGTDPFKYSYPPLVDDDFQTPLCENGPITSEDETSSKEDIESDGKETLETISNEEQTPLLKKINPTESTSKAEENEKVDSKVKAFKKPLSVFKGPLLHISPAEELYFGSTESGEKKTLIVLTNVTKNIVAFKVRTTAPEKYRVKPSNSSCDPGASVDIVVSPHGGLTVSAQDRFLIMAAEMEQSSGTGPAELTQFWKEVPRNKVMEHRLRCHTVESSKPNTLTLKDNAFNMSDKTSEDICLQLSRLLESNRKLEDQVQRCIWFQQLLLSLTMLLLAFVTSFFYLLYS
UniProt Q8IY33: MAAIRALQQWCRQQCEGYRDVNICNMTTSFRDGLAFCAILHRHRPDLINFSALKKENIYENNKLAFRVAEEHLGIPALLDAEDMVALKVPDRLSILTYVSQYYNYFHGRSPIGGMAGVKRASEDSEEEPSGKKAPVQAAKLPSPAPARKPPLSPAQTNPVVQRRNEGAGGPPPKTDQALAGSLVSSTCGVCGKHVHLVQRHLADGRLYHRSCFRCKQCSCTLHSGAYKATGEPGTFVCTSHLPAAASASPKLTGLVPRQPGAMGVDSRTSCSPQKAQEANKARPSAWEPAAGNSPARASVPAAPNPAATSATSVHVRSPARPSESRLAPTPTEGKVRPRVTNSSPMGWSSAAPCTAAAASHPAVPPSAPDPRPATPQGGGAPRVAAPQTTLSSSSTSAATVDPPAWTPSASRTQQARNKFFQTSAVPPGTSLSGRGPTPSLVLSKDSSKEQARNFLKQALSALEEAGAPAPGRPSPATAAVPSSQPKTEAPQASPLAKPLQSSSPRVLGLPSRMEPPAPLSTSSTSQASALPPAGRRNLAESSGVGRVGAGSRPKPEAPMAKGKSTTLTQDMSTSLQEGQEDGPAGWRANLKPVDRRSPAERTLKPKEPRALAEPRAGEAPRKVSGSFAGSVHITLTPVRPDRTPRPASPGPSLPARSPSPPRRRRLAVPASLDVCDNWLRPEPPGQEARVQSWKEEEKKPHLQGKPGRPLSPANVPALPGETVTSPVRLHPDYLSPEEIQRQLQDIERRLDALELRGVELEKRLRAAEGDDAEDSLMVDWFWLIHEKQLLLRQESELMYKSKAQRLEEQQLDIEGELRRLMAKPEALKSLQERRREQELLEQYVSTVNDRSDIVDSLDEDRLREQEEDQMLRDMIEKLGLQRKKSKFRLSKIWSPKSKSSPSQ
UniProt Q9NZB8: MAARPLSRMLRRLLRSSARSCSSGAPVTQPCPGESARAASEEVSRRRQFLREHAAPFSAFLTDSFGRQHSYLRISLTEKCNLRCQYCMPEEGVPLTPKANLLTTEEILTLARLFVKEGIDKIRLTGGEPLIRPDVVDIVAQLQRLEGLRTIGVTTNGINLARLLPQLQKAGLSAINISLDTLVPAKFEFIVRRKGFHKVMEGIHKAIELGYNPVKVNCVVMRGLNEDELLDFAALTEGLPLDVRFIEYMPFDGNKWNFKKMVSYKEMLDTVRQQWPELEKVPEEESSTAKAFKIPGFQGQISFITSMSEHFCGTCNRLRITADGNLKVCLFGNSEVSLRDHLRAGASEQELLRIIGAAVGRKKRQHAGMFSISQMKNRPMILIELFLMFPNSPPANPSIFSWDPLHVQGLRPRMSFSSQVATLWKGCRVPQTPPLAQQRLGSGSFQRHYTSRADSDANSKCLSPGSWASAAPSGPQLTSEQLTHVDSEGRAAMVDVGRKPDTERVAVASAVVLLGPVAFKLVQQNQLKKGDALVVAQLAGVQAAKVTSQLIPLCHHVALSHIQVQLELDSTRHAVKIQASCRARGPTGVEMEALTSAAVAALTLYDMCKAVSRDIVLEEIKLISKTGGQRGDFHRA
UniProt P34949: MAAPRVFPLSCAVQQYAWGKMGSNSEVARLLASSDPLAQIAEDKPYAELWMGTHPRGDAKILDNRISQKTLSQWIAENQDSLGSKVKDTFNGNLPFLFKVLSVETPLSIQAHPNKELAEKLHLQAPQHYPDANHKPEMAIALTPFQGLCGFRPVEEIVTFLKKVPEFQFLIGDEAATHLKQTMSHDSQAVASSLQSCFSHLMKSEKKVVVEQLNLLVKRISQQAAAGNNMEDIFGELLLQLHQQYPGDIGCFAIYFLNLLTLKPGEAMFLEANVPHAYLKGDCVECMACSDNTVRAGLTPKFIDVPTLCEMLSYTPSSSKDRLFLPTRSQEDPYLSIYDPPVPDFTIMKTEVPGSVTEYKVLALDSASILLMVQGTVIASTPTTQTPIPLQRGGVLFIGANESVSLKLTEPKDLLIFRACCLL
UniProt Q9NXC5: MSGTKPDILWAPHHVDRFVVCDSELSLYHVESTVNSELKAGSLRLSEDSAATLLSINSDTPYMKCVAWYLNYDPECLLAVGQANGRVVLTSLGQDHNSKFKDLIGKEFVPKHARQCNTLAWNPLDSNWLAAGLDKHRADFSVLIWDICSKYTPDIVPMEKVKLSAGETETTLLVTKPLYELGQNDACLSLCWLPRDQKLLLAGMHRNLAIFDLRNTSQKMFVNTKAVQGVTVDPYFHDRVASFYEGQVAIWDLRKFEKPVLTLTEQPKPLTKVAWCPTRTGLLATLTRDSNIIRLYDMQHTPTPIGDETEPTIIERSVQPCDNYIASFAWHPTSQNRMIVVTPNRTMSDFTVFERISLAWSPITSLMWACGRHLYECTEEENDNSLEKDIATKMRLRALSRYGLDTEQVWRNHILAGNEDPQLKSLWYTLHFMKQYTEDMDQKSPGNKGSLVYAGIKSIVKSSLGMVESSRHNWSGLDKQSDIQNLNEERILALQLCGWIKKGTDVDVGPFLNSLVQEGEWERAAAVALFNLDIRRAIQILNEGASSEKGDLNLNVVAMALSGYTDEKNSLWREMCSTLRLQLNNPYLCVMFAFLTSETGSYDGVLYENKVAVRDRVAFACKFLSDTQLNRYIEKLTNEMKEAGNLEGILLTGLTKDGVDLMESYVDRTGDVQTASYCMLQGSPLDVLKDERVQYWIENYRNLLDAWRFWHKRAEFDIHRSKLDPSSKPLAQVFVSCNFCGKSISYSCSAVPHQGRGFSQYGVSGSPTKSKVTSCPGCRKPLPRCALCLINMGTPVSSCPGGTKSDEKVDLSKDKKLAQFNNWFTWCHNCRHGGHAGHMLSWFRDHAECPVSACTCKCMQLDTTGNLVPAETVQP
UniProt P22033: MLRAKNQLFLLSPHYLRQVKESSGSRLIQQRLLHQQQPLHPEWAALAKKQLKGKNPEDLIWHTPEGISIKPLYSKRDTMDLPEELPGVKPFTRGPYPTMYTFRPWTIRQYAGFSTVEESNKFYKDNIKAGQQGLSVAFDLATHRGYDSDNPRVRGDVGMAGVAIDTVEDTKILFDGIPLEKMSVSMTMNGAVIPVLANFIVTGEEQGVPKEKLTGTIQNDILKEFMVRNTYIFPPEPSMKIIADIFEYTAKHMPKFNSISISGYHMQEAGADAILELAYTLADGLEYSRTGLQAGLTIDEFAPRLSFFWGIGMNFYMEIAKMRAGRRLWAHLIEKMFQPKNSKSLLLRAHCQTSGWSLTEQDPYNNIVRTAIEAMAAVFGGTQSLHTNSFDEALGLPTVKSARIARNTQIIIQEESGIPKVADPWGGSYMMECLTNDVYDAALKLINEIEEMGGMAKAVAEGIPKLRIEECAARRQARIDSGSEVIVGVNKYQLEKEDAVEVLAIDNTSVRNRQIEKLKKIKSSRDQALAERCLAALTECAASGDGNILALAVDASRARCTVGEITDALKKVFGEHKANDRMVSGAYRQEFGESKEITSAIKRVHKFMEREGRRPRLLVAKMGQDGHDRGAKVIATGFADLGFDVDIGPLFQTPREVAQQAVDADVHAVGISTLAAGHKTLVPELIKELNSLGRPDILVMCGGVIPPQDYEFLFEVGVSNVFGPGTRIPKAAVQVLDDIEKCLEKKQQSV
UniProt Q03111: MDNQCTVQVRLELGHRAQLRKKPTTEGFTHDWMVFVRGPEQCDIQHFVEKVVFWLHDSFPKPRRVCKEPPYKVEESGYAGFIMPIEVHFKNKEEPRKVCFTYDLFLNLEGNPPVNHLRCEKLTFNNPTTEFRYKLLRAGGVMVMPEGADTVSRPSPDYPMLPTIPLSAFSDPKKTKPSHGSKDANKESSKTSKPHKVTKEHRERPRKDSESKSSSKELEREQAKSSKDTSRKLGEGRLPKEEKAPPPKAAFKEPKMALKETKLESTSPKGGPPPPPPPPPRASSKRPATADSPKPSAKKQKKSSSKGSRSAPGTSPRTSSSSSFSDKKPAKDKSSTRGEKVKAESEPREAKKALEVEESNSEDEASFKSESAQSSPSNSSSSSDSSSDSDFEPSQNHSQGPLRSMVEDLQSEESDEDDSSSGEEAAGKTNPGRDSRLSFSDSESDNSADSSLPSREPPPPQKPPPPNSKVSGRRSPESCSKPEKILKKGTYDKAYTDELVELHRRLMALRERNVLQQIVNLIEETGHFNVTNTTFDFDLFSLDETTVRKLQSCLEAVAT
UniProt Q9BVC4, whole entry, looked up: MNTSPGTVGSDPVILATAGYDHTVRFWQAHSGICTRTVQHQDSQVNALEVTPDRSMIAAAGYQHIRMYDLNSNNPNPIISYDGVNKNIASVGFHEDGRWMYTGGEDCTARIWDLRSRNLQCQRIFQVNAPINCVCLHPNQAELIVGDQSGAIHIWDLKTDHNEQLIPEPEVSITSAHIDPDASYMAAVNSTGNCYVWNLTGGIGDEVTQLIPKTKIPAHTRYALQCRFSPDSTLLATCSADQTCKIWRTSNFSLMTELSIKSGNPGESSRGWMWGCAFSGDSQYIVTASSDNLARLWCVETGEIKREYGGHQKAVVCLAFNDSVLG

volasertib = compound: CC[C@@H]1C(=O)N(C)c2cnc(Nc3ccc(C(=O)N[C@H]4CC[C@H](N5CCN(CC6CC6)CC5)CC4)cc3OC)nc2N1C(C)C [volasertib]
In short: as §1

[2] = compound: CC[C@H](C)N1C=C(C2=C(C=C(C=C21)C3=CN=C(C=C3)N4CCNCC4)C(=O)NCC5=C(C=C(NC5=O)C)C)C
In short: as §1

epoxomicin = compound: CC[C@H](C)[C@@H](C(=O)N[C@@H]([C@@H](C)O)C(=O)N[C@@H](CC(C)C)C(=O)[C@]1(CO1)C)NC(=O)[C@H]([C@@H](C)CC)N(C)C(=O)C [epoxomicin]
In short: as §1

[3] = compound: CCn1c(C(=O)N(C2CC2)C2CC2)cc2c3c(ncn3C)c(Nc3cc(C)n(C)n3)nc21
In short: as §1

[4] = compound: CCn1cc(-c2ccnc3[nH]c(-c4cccc(CN(C)C)c4)cc23)c(-c2ccc(NC(=O)N(C)C)cc2)n1
In short: as §1

[5] = compound: CN(C)CC(=O)Nc1ccc2[nH]c(=O)c3ccccc3c2c1
In short: as §1

rosiglitazone = compound: CN(CCOC1=CC=C(C=C1)C[C@H]2C(=O)NC(=O)S2)C3=CC=CC=N3 (racemic) [rosiglitazone]
In short: as §1

[6] = compound: CN1C2=C(C3=C1C(=O)N(N=C3)CC4=CC(=CC=C4)N)SC(=C2)S(=O)C
In short: as §1

[7] = compound: CN1CCC(CNc2ccc3ncc(-c4cccc(OC(F)(F)F)c4)n3n2)CC1
In short: as §1

saracatinib = compound: CN1CCN(CCOc2cc(OC3CCOCC3)c3c(Nc4c(Cl)ccc5c4OCO5)ncnc3c2)CC1 [saracatinib]
In short: as §1

sotrastaurin = compound: CN1CCN(c2nc(C3=C(c4c[nH]c5ccccc45)C(=O)NC3=O)c3ccccc3n2)CC1 [sotrastaurin]
In short: as §1

alvocidib = compound: CN1CC[C@H](c2c(O)cc(O)c3c(=O)cc(-c4ccccc4Cl)oc23)[C@H](O)C1 [alvocidib]
In short: as §1

Tubastatin A = compound: CN1CCc2c(c3ccccc3n2Cc2ccc(C(=O)NO)cc2)C1 [Tubastatin A]
In short: as §1

[8] = compound: CNC(=O)C1=CC=CC=C1NC2=NC(=NC=C2Cl)NC3=C(C=C(C=C3)N4CCOCC4)OC
In short: as §1

defactinib = compound: CNC(=O)c1ccc(Nc2ncc(C(F)(F)F)c(NCc3nccnc3N(C)S(C)(=O)=O)n2)cc1 [defactinib]
In short: as §1

rucaparib = compound: CNCc1ccc(-c2[nH]c3cc(F)cc4c3c2CCNC4=O)cc1 [rucaparib]
In short: as §1

[9] = compound: CNc1nc(-c2ccc3c(N)n[nH]c3c2)cc(N2C[C@@H](C(=O)NC3CCCCC3)CC[C@H]2C)n1
In short: as §1

encorafenib = compound: COC(=O)N[C@@H](C)CNc1nccc(-c2cn(C(C)C)nc2-c2cc(Cl)cc(NS(C)(=O)=O)c2F)n1 [encorafenib]
In short: as §1

[10] = compound: COC(=O)[C@H](CCSC)NC(=O)C1=C(C=C(C=C1)NC[C@H](CS)N)C2=CC=CC=C2
In short: as §1

Measured: log2 fold change

MOSPD2 (UniProt Q8NHP6)
inactive: [1] 0.204 | volasertib 0.003 | [2] -0.053 | epoxomicin -0.032 | [3] 0.003 | [4] -0.058 | [5] -0.054 | rosiglitazone 0.027 | [6] 0.009 | [7] 0 | saracatinib -0.07 | sotrastaurin -0.061 | alvocidib -0.028 | Tubastatin A 0.019 | [8] 0 | defactinib -0.039 | rucaparib -0.047 | [9] -0.01 | encorafenib -0.036 | [10] -0.007

MICALL2 (UniProt Q8IY33)
inactive: [1] -0.079 | volasertib -0.056 | [2] 0.084 | epoxomicin 0.099 | [3] -0.046 | [4] -0.071 | [5] 0.097 | rosiglitazone 0.122 | [6] -0.009 | [7] -0.059 | saracatinib -0.087 | sotrastaurin 0.02 | alvocidib -0.145 | Tubastatin A 0.075 | [8] -0.021 | defactinib -0.131 | rucaparib 0.027 | [9] 0.082 | encorafenib 0.046 | [10] -0.002

MRPL37 (UniProt Q9BZE1)
inactive: [1] 0.023 | volasertib 0.163 | [2] 0.07 | epoxomicin -0.006 | [3] 0.011 | [4] -0.082 | [5] -0.032 | rosiglitazone -0.029 | [6] 0.063 | [7] -0.04 | saracatinib -0.118 | sotrastaurin -0.127 | alvocidib 0.05 | Tubastatin A 0.046 | [8] -0.015 | defactinib 0.074 | rucaparib 0.111 | [9] 0.186 | encorafenib 0.076 | [10] -0.039

MRPL19 (UniProt P49406)
inactive: [1] 0.06 | volasertib 0.107 | [2] 0.005 | epoxomicin 0.011 | [3] 0.004 | [4] -0.061 | [5] -0.046 | rosiglitazone 0.011 | [6] 0.03 | [7] 0.11 | saracatinib -0.174 | sotrastaurin -0.119 | alvocidib 0.049 | Tubastatin A 0.048 | [8] -0.066 | defactinib 0.174 | rucaparib 0.119 | [9] 0.153 | encorafenib 0.139 | [10] -0.056

MOCS1 isoform 8 (UniProt Q9NZB8)
inactive: [1] 0.056 | volasertib 0.038 | [2] 0.051 | epoxomicin -0.053 | [3] 0.018 | [4] 0.11 | [5] 0.092 | rosiglitazone -0.079 | [6] 0.094 | [7] 0.114 | saracatinib 0.11 | sotrastaurin -0.01 | alvocidib -0.028 | Tubastatin A 0.066 | [8] 0.066 | defactinib 0.02 | rucaparib -0.059 | [9] -0.076 | encorafenib -0.121 | [10] 0.077

MPI (UniProt P34949)
inactive: [1] -0.033 | volasertib -0.164 | [2] 0.035 | epoxomicin 0 | [3] -0.051 | [4] -0.013 | [5] -0.001 | rosiglitazone 0.04 | [6] -0.077 | [7] -0.134 | saracatinib 0.028 | sotrastaurin 0.036 | alvocidib -0.028 | Tubastatin A -0.079 | [8] -0.158 | defactinib -0.049 | rucaparib 0.016 | [9] 0.04 | encorafenib 0.026 | [10] 0.155

MIOS (UniProt Q9NXC5)
inactive: [1] 0.02 | volasertib 0.047 | [2] -0.012 | epoxomicin -0.013 | [3] -0.037 | [4] 0.066 | [5] -0.041 | rosiglitazone -0.023 | [6] 0.035 | [7] 0.096 | saracatinib 0.027 | sotrastaurin -0.041 | alvocidib 0.056 | Tubastatin A 0.003 | [8] 0.033 | defactinib -0.012 | rucaparib -0.032 | [9] -0.041 | encorafenib -0.017 | [10] 0.035

MMUT (UniProt P22033)
inactive: [1] -0.021 | volasertib -0.069 | [2] 0.013 | epoxomicin 0.021 | [3] 0 | [4] -0.042 | [5] 0.013 | rosiglitazone 0.031 | [6] -0.045 | [7] -0.067 | saracatinib 0.023 | sotrastaurin -0.021 | alvocidib -0.036 | Tubastatin A -0.012 | [8] 0.03 | defactinib -0.072 | rucaparib -0.059 | [9] -0.072 | encorafenib 0.025 | [10] -0.009

MRPL30 isoform 2 (UniProt Q8TCC3)
inactive: [1] 0.054 | volasertib 0.193 | [2] 0.026 | epoxomicin -0.059 | [3] -0.118 | [4] -0.005 | [5] -0.027 | rosiglitazone -0.048 | [6] 0.102 | [7] 0.145 | saracatinib -0.18 | sotrastaurin -0.041 | alvocidib 0.172 | Tubastatin A 0.141 | [8] -0.085 | defactinib 0.122 | rucaparib 0.144 | [9] 0.148 | encorafenib 0.158 | [10] -0.095

MRPL17 (UniProt Q9NRX2)
inactive: [1] 0.062 | volasertib 0.255 | [2] 0.024 | epoxomicin -0.045 | [3] 0.009 | [4] 0.035 | [5] -0.044 | rosiglitazone -0.013 | [6] 0.155 | [7] 0.052 | saracatinib -0.129 | sotrastaurin -0.011 | alvocidib 0.014 | Tubastatin A 0.071 | [8] 0.036 | defactinib 0.162 | rucaparib 0.05 | [9] 0.078 | encorafenib 0.043 | [10] -0.044

MLLT1 (UniProt Q03111)
inactive: [1] -0.003 | volasertib -0.034 | [2] -0.172 | epoxomicin -0.044 | [3] 0.028 | [4] -0.03 | [5] -0.057 | rosiglitazone -0.058 | [6] -0.039 | [7] -0.023 | saracatinib 0.032 | sotrastaurin -0.05 | alvocidib -0.009 | Tubastatin A 0.142 | [8] 0.014 | defactinib -0.035 | rucaparib 0.025 | [9] -0.055 | encorafenib 0.07 | [10] 0.097

MRPL54 (UniProt Q6P161)
inactive: [1] 0.044 | volasertib 0.101 | [2] -0.036 | epoxomicin -0.03 | [3] 0.025 | [4] 0.155 | [5] -0.146 | rosiglitazone -0.075 | [6] 0.139 | [7] -0.043 | saracatinib 0.033 | sotrastaurin 0.07 | alvocidib 0.105 | Tubastatin A -0.112 | [8] -0.032 | defactinib 0.16 | rucaparib 0.138 | [9] -0.089 | encorafenib -0.131 | [10] 0.12

MRPL38 (UniProt Q96DV4)
inactive: [1] 0.138 | volasertib 0.234 | [2] 0.114 | epoxomicin -0.108 | [3] -0.046 | [4] -0.038 | [5] -0.018 | rosiglitazone -0.003 | [6] 0.091 | [7] 0.091 | saracatinib -0.183 | sotrastaurin -0.035 | alvocidib 0.139 | Tubastatin A 0.069 | [8] -0.03 | defactinib 0.184 | rucaparib 0.145 | [9] 0.129 | encorafenib 0.118 | [10] -0.002

MRPL23 (UniProt Q16540)
inactive: [1] -0.011 | volasertib 0.268 | [2] 0.052 | epoxomicin 0.025 | [3] -0.037 | [4] 0.019 | [5] -0.041 | rosiglitazone -0.158 | [6] 0.082 | [7] -0.021 | saracatinib -0.16 | sotrastaurin 0.016 | alvocidib 0.111 | Tubastatin A 0.066 | [8] -0.062 | defactinib 0.212 | rucaparib 0.125 | [9] 0.01 | encorafenib 0.048 | [10] -0.216

Quoted from the listing (2 entries):
MRPL54 (UniProt Q6P161)
inactive: [1] 0.044 | volasertib 0.101 | [2] -0.036 | epoxomicin -0.03 | [3] 0.025 | [4] 0.155 | [5] -0.146 | rosiglitazone -0.075 | [6] 0.139 | [7] -0.043 | saracatinib 0.033 | sotrastaurin 0.07 | alvocidib 0.105 | Tubastatin A -0.112 | [8] -0.032 | defactinib 0.16 | rucaparib 0.138 | [9] -0.089 | encorafenib -0.131 | [10] 0.12

MRPL38 (UniProt Q96DV4)
inactive: [1] 0.138 | volasertib 0.234 | [2] 0.114 | epoxomicin -0.108 | [3] -0.046 | [4] -0.038 | [5] -0.018 | rosiglitazone -0.003 | [6] 0.091 | [7] 0.091 | saracatinib -0.183 | sotrastaurin -0.035 | alvocidib 0.139 | Tubastatin A 0.069 | [8] -0.03 | defactinib 0.184 | rucaparib 0.145 | [9] 0.129 | encorafenib 0.118 | [10] -0.002

Later entries:

MRPL34 (UniProt Q9BQ48)
inactive: [1] 0.061 | volasertib 0.029 | [2] -0.007 | epoxomicin -0.042 | [4] 0.109 | [5] -0.065 | [6] 0.232 | [7] 0.048 | saracatinib -0.09 | sotrastaurin 0 | Tubastatin A 0.119 | [8] 0.086 | defactinib 0.138 | rucaparib 0.101 | [9] 0.169 | encorafenib 0.055 | [10] 0.035

MLST8 (UniProt Q9BVC4)
active: volasertib -0.353
inactive: [1] -0.22 | [2] 0.05 | epoxomicin -0.02 | [5] 0.109 | [6] -0.016 | saracatinib -0.124 | sotrastaurin -0.003 | Tubastatin A 0.124 | [8] -0.116 | defactinib -0.092 | rucaparib 0.099 | [9] 0.014 | encorafenib 0.101 | [10] -0.106

— the supplement of paper PMC10849652
